Results reported in PubChem BioAssay AID2685 (National Center for Advancing Translational Sciences (NCATS), 2010).
The list shows a part of the results. Further columns of the screen follow, without active or inactive calls. Most of these compounds were active or inconclusive in the main read-out, so they are no random draw. Potencies come from curve fits of mixed quality, noted in brackets.

Assay: qHTS Assay for Lipid Storage Modulators in Drosophila S3 Cells;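 as to cell number change: cells counted by Cell Tracker Red CMTPX staining in the red channel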
Details: BODIPY lipid droplet fluorescence, 18-24 h; for cell number change: measured here: cell count max response, cells fed with added oleic acid
In short: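 Drosophila S3 cells got compounds at several concentrations plus oleic acid (400 uM solution). Laser-scanning cytometry with 488 nm excitation read lipid droplets at 500-530 nm and cells at 575-640 nm. Percent activity was relative to 20 uM Triacsin C.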

[1] = measured here: lipid fluorescence (Fed channel) AC50, cells fed with added oleic acid
[2] = measured here: cell number channel AC50, cells fed with added oleic acid

SMILES: CCN(CC)C(=O)c1ccc(CS(=O)(=O)c2ccc(Br)cc2)cc1
- cell number change: 1.46%
- AC50 [1]: 29.1 µM [rising, single point]

SMILES: Cc1cccc(C(=O)NNC(=O)c2cc3cc4ccccc4nc3s2)c1
- cell number change: -40.5%
- AC50 [2]: 16.4 µM [falling, partial curve]
- AC50 [1]: 16.4 µM [falling, single point]

SMILES: Cc1cccc(Oc2nc(-c3ccccn3)nc3ccccc23)c1
- cell number change: 10.6%
- AC50 [2]: 0.651 µM [rising, full curve, poor fit]

SMILES: O=C(NCC1OCCc2ccccc21)C1COc2ccccc2O1 (stereo not given)
- cell number change: 11.4%
- AC50 [2]: 6.51 µM [rising, single point]

SMILES: Cc1cccc(C)c1NC(=O)CN(C)C(=O)c1ccc(-n2cncn2)c([N+](=O)[O-])c1
- cell number change: 2.83%
- AC50 [2]: 4.61 µM [rising, partial curve]

SMILES: O=C1NCCc2c1[nH]c1ccc([N+](=O)[O-])cc21
- cell number change: -38.9%
- AC50 [1]: 0.92 µM [rising, full curve]

SMILES: C[C@@H]1CC[C@H]2C(=O)N3[C@@H](CC[C@@H](C)[C@@H]3c3ccc(Br)cc3)C(=O)N2[C@H]1c1ccc(Br)cc1
- cell number change: -14.5%
- AC50 [1]: 16.4 µM [rising, partial curve]

SMILES: O=C1CCCN1CCC1CCN(C2CC(=O)N(c3ccc(F)cc3)C2=O)CC1 (stereo not given)
- cell number change: -8.91%
- AC50 [2]: 7.31 µM [falling, single point]
- AC50 [1]: 0.00517 µM [falling, full curve, poor fit]

SMILES: COc1ccc(OC)c(C2C=C(c3ccc(C)c(C)c3)Nc3nnnn32)c1 (stereo not given)
- cell number change: -23%
- AC50 [1]: 1.16 µM [rising, partial curve]

SMILES: Cc1ccc(S(=O)(=O)c2cc(Nc3ccccc3)ccc2O)cc1
- cell number change: -57.7%
- AC50 [2]: 20.6 µM [falling, single point]

SMILES: O=C(CC(c1ccccc1)c1cc(Br)ccc1O)NCCCN1CCOCC1 (stereo not given)
- cell number change: 11.3%
- AC50 [2]: 0.00411 µM [rising, full curve, poor fit]
- AC50 [1]: 0.58 µM [falling, single point]

SMILES: CC(C)(C)c1ccc(C(=O)NNc2cc(N3CCOCC3)nc(N3CCOCC3)n2)cc1
- cell number change: -18.1%

SMILES: CCOC(=O)C(CCCOc1ccccc1)C(=O)OCC
- cell number change: -37.5%
- AC50 [2]: 36.6 µM [falling, partial curve, poor fit]

SMILES: Cc1ccc(C)c(C(=O)O/N=C(\N)c2ccc(Br)cc2)c1
- cell number change: 60%
- AC50 [2]: 23.1 µM [rising, single point]

SMILES: O=C(N1CCN(Cc2ccccc2)CC1)C(Cl)(Cl)Cl
- cell number change: 3.23%
- AC50 [1]: 0.461 µM [falling, full curve, poor fit]

SMILES: CNC(=O)CN(c1cccc2ccccc12)S(C)(=O)=O
- cell number change: -0.86%

SMILES: COc1ccccc1N1CCN(S(=O)(=O)c2cccc3nsnc23)CC1
- cell number change: -40.2%
- AC50 [2]: 32.6 µM [falling, single point]
- AC50 [1]: 29.1 µM [rising, partial curve]

SMILES: CN(C)CCN1C(=O)C(O)=C(C(=O)c2ccco2)C1c1ccccc1F (stereo not given)
- cell number change: -36.8%
- AC50 [2]: 0.58 µM [falling, full curve]
- AC50 [1]: 6.51 µM [falling, partial curve]

SMILES: CCOC(=O)N1CCN(C(=O)CN(c2cccc(C(F)(F)F)c2)S(=O)(=O)c2ccccc2)CC1
- cell number change: -10.7%
- AC50 [1]: 3.26 µM [falling, single point]

SMILES: CCOc1cc(-c2nccc3cc(OC)c(OC)cc23)cc(OCC)c1OCC
- cell number change: -46.8%

SMILES: O=C(COC(=O)Cc1ccc(F)cc1)Nc1ccc2[nH]c(=O)[nH]c2c1
- cell number change: -19.6%
- AC50 [2]: 0.461 µM [falling, full curve, poor fit]
- AC50 [1]: 8.2 µM [falling, partial curve, poor fit]

SMILES: N#CC1=C(N)Oc2cc3ccccc3cc2C1c1cccnc1 (stereo not given)
- cell number change: -10.7%
- AC50 [1]: 0.206 µM [rising, full curve, poor fit]

SMILES: CC1(C(=O)NCCOc2ccccc2Cl)CC1(Cl)Cl (stereo not given)
- cell number change: 5.8%

SMILES: COCCOc1cc(NC(=O)c2ccccc2)c(Cl)cc1Cl
- cell number change: 64.7%
- AC50 [2]: 29.1 µM [rising, partial curve, poor fit]
- AC50 [1]: 16.4 µM [rising, single point]

SMILES: Cc1ccc(F)cc1NC(=O)N1CCNC(=O)C1CC(=O)Nc1cc(Cl)ccc1Cl (stereo not given)
- cell number change: -8.2%
- AC50 [2]: 7.31 µM [rising, partial curve, poor fit]

SMILES: O=c1/c(=C/c2ccc(O)cc2)sc2n1CCCN=2
- cell number change: -22.8%
- AC50 [1]: 25.9 µM [falling, single point]

SMILES: COC(=O)c1cn(C(=O)c2cc(OC)c(OC)c(OC)c2)c2ccccc12
- cell number change: -32.8%
- AC50 [2]: 20.6 µM [falling, partial curve, poor fit]

SMILES: Cc1ccc(CCNC(=O)CN(C)S(=O)(=O)c2ccc3c(c2)c(=O)n(C)c(=O)n3C)cc1
- cell number change: -16.3%
- AC50 [2]: 3.66 µM [rising, single point]
- AC50 [1]: 18.4 µM [rising, single point]

SMILES: O=C(CCSCCC(=O)Nc1c(F)c(F)c(F)c(F)c1F)Nc1c(F)c(F)c(F)c(F)c1F
- cell number change: -13.7%

SMILES: Cc1ccc(C(=O)NCCc2c[nH]c3ccccc23)s1
- cell number change: 11.5%
- AC50 [1]: 29.1 µM [falling, partial curve]

SMILES: CC(C)CC(C(=O)OCC(=O)c1c(N)n(C)c(=O)n(C)c1=O)N1C(=O)c2ccccc2C1=O (stereo not given)
- cell number change: -33.9%
- AC50 [1]: 29.1 µM [falling, single point]

SMILES: CC(=O)/C=C\c1cn(-c2ncc(C(F)(F)F)cc2Cl)c2ccccc12
- cell number change: -6.45%
- AC50 [1]: 6.51 µM [falling, single point]

SMILES: CC(C)(C)n1nnnc1C(c1ccncc1)N1CCCCCC1 (stereo not given)
- cell number change: 4.97%
- AC50 [1]: 0.00461 µM [rising, full curve, poor fit]

SMILES: Cc1nnc(NC(=O)CCSCCC(=O)Nc2nnc(C)s2)s1
- cell number change: -22.6%
- AC50 [1]: 2.59 µM [falling, partial curve]

SMILES: O=c1[nH]c(CNCc2cccnc2)nc2ccccc12
- cell number change: -1.54%
- AC50 [2]: 0.116 µM [falling, full curve, poor fit]

SMILES: COc1ccc(C(=O)Nc2c(Cl)cc(Cl)cc2C(=O)N2CCOCC2)cc1
- cell number change: 1.59%
- AC50 [1]: 0.13 µM [falling, full curve]
